Assay results taken from publication PMC5342045.
No constants are given. Whether binding was seen depends on the method and setting. Binding seen in cells or lysates may run through a third protein. Some results given as binding are weak or reduced against the parent protein; the word gives no strength.

Protein sequences, listed by entry. Tags and fused reporters are not part of them.
UniProt P05556: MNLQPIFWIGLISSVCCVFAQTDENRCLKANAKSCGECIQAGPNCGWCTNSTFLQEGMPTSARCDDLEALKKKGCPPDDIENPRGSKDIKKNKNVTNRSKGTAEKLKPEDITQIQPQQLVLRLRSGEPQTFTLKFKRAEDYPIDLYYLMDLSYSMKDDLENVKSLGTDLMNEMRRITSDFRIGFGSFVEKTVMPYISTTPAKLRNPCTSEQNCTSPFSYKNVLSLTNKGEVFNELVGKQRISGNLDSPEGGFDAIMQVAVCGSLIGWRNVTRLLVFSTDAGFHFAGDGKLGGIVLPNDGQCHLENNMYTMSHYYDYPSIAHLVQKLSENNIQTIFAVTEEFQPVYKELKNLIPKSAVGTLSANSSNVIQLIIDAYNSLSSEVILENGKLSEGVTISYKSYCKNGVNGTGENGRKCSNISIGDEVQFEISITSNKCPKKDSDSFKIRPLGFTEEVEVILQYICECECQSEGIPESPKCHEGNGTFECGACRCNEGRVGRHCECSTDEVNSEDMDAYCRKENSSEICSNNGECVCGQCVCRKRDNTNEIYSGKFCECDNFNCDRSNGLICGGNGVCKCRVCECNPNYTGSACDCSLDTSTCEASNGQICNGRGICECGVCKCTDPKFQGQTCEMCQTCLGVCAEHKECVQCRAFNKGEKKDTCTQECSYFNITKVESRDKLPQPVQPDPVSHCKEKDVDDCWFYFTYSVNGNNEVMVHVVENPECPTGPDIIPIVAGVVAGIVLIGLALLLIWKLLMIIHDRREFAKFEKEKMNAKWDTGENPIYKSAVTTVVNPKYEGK

Legend:
[1] = target: beta1 integrin (human (endogenous in LNCaP, PC3-PSMA and patients' prostate tissue)) (UniProt P05556); test: co-IP; IP of beta1 from RIPA lysates of frozen prostate carcinoma tissue (PCa1, PCa2, GS 8; two pieces each); immunoblot
[2] = target: beta1 integrin (human (endogenous in LNCaP, PC3-PSMA and patients' prostate tissue)) (UniProt P05556); test: co-IP; IP of beta1 from lysates of PC3-PSMA cells treated with gam or D2B+gam, same set-up as for LNCaP
[3] = target: beta1 integrin (human (endogenous in LNCaP, PC3-PSMA and patients' prostate tissue)) (UniProt P05556); test: co-IP; IP of beta1 from the same lysates of LNCaP cells treated with gam or D2B+gam; 500 ug pre-cleared lysate, Protein G Sepharose; immunoblot
[4] = target: beta1 integrin (human (endogenous in LNCaP, PC3-PSMA and patients' prostate tissue)) (UniProt P05556); test: co-IP; IP of beta1 from RIPA lysates of frozen non neoplastic prostate area (NNA; PSMA not expressed); immunoblot

Measured: binding

filamin A (from UniProt P21333-2 1-2639)
binds: all assays above

B1: phospho-p130CAS (protein, UniProt P56945-6 1-916)
chain: MPAKPFLSSVLLSWKVLDFSGPGPQGTGQPCSCGHWAEGQGGPPEPAGGPNVLAKALYDNVAESPDELSFRKGDIMTVLEQDTQGLDGWWLCSLHGRQGIVPGNRLKILVGMYDKKPAGPGPGPPATPAQPQPGLHAPAPPASQYTPMLPNTYQPQPDSVYLVPTPSKAQQGLYQVPGPSPQFQSPPAKQTSTFSKQTPHHPFPSPATDLYQVPPGPGGPAQDIYQVPPSAGMGHDIYQVPPSMDTRSWEGTKPPAKVVVPTRVGQGYVYEAAQPEQDEYDIPRHLLAPGPQDIYDVPPVRGLLPSQYGQEVYDTPPMAVKGPNGRDPLLEVYDVPPSVEKGLPPSNHHAVYDVPPSVSKDVPDGPLLREETYDVPPAFAKAKPFDPARTPLVLAAPPPDSPPAEDVYDVPPPAPDLYDVPPGLRRPGPGTLYDVPRERVLPPEVADGGVVDSGVYAVPPPAEREAPAEGKRLSASSTGSTRSSQSASSLEVAGPGREPLELEVAVEALARLQQGVSATVAHLLDLAGSAGATGSWRSPSEPQEPLVQDLQAAVAAVQSAVHELLEFARSAVGNAAHTSDRALHAKLSRQLQKMEDVHQTLVAHGQALDAGRGGSGATLEDLDRLVACSRAVPEDAKQLASFLHGNASLLFRRTKATAPGPEGGGTLHPNPTDKTSSIQSRPLPSPPKFTSQDSPDGQYENSEGGWMEDYDYVHLQGKEEFEKTQKELLEKGSITRQGKSQLELQQLKQFERLEQEVSRPIDHDLANWTPAQPLAPGRTGGLGPSDRQLLLFYLEQCEANLTTLTNAVDAFFTAVATNQPPKIFVAHSKFVILSAHKLVFIGDTLSRQAKAADVRSQVTHYSNLLCDLLRGIVATTKAAALQYPSPSAAQDMVERVKELGHSTQQFRRVLGQLAAA
modifications: phosphorylated (detected with an antibody to pp130CAS); the site is not given
binds: [1] | [2] | [3]
